What is called AC50 is the concentration giving half of the maximal activity seen.

This is an account of results in PubChem BioAssay AID493014 (National Center for Advancing Translational Sciences (NCATS), 2011).

The list shows a part of the results. Further columns of the screen follow, without active or inactive calls. The list favours compounds with an active or inconclusive main result. The note in brackets gives the kind of curve behind each potency; many fits are weak.

The test in a line: qHTS Assay to Find Inhibitors of Chronic Active B-Cell Receptor Signaling. The conditions noted are these: ABC-DLBCL IkBa-CBG/CBR reporter, luminescence ratio (green luciferase fused to IkBa over red control in TMD8 lymphoma cells), 4 h. In short, it runs like this:
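Cell line TMD8 (human ABC DLBCL), stably expressing tet-inducible CBG68-IkBa fusion and CBR; IMDM/0.5% FBS; cpd up to 46 uM; dox induction, 4 h, 37C/5% CO2; dual luminescence; green/red ratio; MG132 control.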
On the technique in general: Quantitative high-throughput screening tests each substance at several concentrations.

For the compound `Cc1c(CC(=O)O)c(=O)oc2c(C)c3occ(-c4ccc(Br)cc4)c3cc12`, the concentration at half-maximal activity (AC50) (measured here: IkBa-CBG green luminescence) is 14.1 µM [rising, partial curve, poor fit].

Consider `COc1cc(/C=C2\C(=N)N3N=C(S(C)(=O)=O)SC3=NC2=O)ccc1OCCOc1ccccc1C`, for which, for the setting “measured here: CBR red luminescence, cell number”, the AC50 was 0.708 µM [rising, full curve, poor fit].
